{"source": "the supplement of paper PMC12889115", "tested_on": "Salmonella enterica serovar Typhimurium SL1344", "assay": "bacterial growth OD600 after 18 h with compound and polymyxin B; higher = more bacterial growth (less inhibition)", "conditions": "50 µM, Mueller-Hinton broth", "note": "The other results are listed elsewhere or left out. These are raw signals, not scaled to a control.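 Primary screen: polymyxin B was added at a level permeabilizing Salmonella outer membranes while sparing inner membranes. DMSO wells, both with and without polymyxin B, established maximum growth. Plate-to-plate variation meant each plate was ranked on its own, and the lowest-OD600 compounds were selected as hits.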"}
{"compound": "c1ccc(CC2CN(Cc3ccc4c(c3)OCCO4)CCO2)cc1", "note": "(stereo not given)", "values": [{"measurement": "bacterial growth OD600", "setting": "polymyxin B 0.75 µg/mL", "result": 0.786}]}
{"compound": "COc1ccc(-c2ccccc2NC(=O)C2CCCN2C(=O)CC(C)(C)C)cc1", "note": "(stereo not given)", "values": [{"measurement": "bacterial growth OD600", "setting": "polymyxin B 1 µg/mL", "result": 1.04}]}
{"compound": "COc1ccccc1NC(=O)Nc1ccnn1C1CCN(C(=O)C2CCCCN2C)CC1", "note": "(stereo not given)", "values": [{"measurement": "bacterial growth OD600", "setting": "polymyxin B 0.75 µg/mL", "result": 0.886}]}
{"compound": "CCCCN(C)C(=O)CCC1(Cc2ccc(F)cc2)CCC(=O)N1", "note": "(stereo not given)", "values": [{"measurement": "bacterial growth OD600", "setting": "polymyxin B 0.75 µg/mL", "result": 0.946}]}
{"compound": "O=C(NCc1cccnc1)C1CCCN(C2CCN(Cc3ccccc3)CC2)C1", "note": "(stereo not given)", "values": [{"measurement": "bacterial growth OD600", "setting": "polymyxin B 0.75 µg/mL", "result": 0.832}]}
{"compound": "COc1ccc(C(=O)C2CCCN(C(=O)C#Cc3ccccc3)C2)cc1OC", "note": "(stereo not given)", "values": [{"measurement": "bacterial growth OD600", "setting": "polymyxin B 1 µg/mL", "result": 0.851}]}
{"compound": "CCn1ccnc1CN1CCC(C2CCN(CC(C)C)CC2)C1", "note": "(stereo not given)", "values": [{"measurement": "bacterial growth OD600", "setting": "polymyxin B 0.75 µg/mL", "result": 0.808}]}
{"compound": "Cc1cnc(C)c(-c2cc(F)cc3c2OC(CNC(=O)CCN(C)C2CCS(=O)(=O)C2)C3)n1", "note": "(stereo not given)", "values": [{"measurement": "bacterial growth OD600", "setting": "polymyxin B 0.75 µg/mL", "result": 0.825}]}
{"compound": "COc1ccc(NC2CCCN(C(=O)C3=NN(C)C(=O)CC3)C2)cc1OC", "note": "(stereo not given)", "values": [{"measurement": "bacterial growth OD600", "setting": "polymyxin B 1 µg/mL", "result": 0.893}]}
{"compound": "CC(C)CCN1CCC(N2CCCC(C(=O)NCc3ccccc3)C2)CC1", "note": "(stereo not given)", "values": [{"measurement": "bacterial growth OD600", "setting": "polymyxin B 0.75 µg/mL", "result": 0.807}]}
{"compound": "COc1ccc(-c2nc(CN(C)C(C)c3cccs3)c(C)o2)c(OC)c1C", "note": "(stereo not given)", "values": [{"measurement": "bacterial growth OD600", "setting": "polymyxin B 0.75 µg/mL", "result": 0.595}]}
{"compound": "COc1cccc(C(C)N(C)Cc2nc(-c3cccc(Cl)c3)oc2C)c1", "note": "(stereo not given)", "values": [{"measurement": "bacterial growth OD600", "setting": "polymyxin B 1 µg/mL", "result": 0.515}]}
{"compound": "CSCCNC1CCN(c2ccc(NC(=O)c3ccc(C)cc3C)cc2)CC1", "values": [{"measurement": "bacterial growth OD600", "setting": "polymyxin B 0.75 µg/mL", "result": 0.866}]}
{"compound": "Cc1nc(C)c(CC(=O)N2CCOc3ccc(CN4CCN(c5ccc(F)cc5)CC4)cc3C2)s1", "values": [{"measurement": "bacterial growth OD600", "setting": "polymyxin B 0.75 µg/mL", "result": 0.793}]}
{"compound": "O=C(C1CC1)N1CCCC(Nc2ccc(F)c(F)c2)C1", "note": "(stereo not given)", "values": [{"measurement": "bacterial growth OD600", "setting": "polymyxin B 1 µg/mL", "result": 0.801}]}
{"compound": "CSCCCNC(=O)c1cn(Cc2ccccc2F)nn1", "values": [{"measurement": "bacterial growth OD600", "setting": "polymyxin B 1 µg/mL", "result": 0.94}]}
{"compound": "Cc1nc(N2CCC(C(=O)N3CCN(c4cnccn4)CC3)CC2)nc2ccc(C(C)C)cc12", "values": [{"measurement": "bacterial growth OD600", "setting": "polymyxin B 0.75 µg/mL", "result": 0.742}]}
{"compound": "c1ccc(Cn2cc(CN3CCSCC3)c(-c3ccc4c(c3)OCO4)n2)cc1", "values": [{"measurement": "bacterial growth OD600", "setting": "polymyxin B 1 µg/mL", "result": 0.184}]}
{"compound": "Cc1nc(N(C)C2CCCCC2)ncc1C(C)NC(=O)c1ccoc1", "note": "(stereo not given)", "values": [{"measurement": "bacterial growth OD600", "setting": "polymyxin B 0.75 µg/mL", "result": 0.645}]}
{"compound": "CC(=O)c1cc(C(=O)N2CCc3onc(-c4ccc(F)c(F)c4)c3C2)cs1", "values": [{"measurement": "bacterial growth OD600", "setting": "polymyxin B 0.75 µg/mL", "result": 0.783}]}
